# In all, about 33,000 sequences were measured (“E-score (-0.5 to 0.5)”: median about -8e-05, highest 2% from about 0.23 on). This is one part of the list.
# Target: T1, Nrg2 (UniProt P38082)
# T1 sequence: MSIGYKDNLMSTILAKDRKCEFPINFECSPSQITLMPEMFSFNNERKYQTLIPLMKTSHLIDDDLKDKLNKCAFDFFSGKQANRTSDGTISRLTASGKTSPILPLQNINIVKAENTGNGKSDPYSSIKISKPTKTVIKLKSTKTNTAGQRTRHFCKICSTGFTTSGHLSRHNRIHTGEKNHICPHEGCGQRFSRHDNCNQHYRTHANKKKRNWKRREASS
# Experiment: PBM E-score (8-mer binding enrichment) (E-score (-0.5 to 0.5)); higher = stronger / more preferred TF binding
# Settings: protein concentration: 100 nM; construct: GST-full length
# How it was run: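 Universal all-10-mer Agilent arrays, double-stranded by primer extension on fresh or once-stripped slides, were probed with about 100-200 nM GST-tagged yeast transcription factors made by PURExpress. Fluorescent anti-GST detected bound protein, and masliner normalised the scans. E-scores from the Universal PBM Analysis Suite were given to each ungapped eight-base word pooled with its reverse complement.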
row,Sequence,PBM E-score
1,CACCCAAA,0.035
2,CTTTTGCA,0.121
3,AAATTCAG,0.143
4,CCATAGGA,-0.212
5,TCCAGGAA,-0.0583
6,ATCCAGAG,0.0996
7,AGTCAGCG,-0.0968
8,GAACCACC,0.14
9,GTGCAAAA,0.04
10,CTTGACGC,-0.123
11,TCGCAAGA,-0.0263
12,TCCCCTAA,0.146
13,ACTGCTGC,-0.0558
14,GTCGGAGA,-0.126
15,ACCAGCTG,-0.069
16,ACTTGCGG,-0.214
17,AAGTCAGG,0.117
18,TACGTACA,0.0349
19,CGCTAGGC,-0.269
20,GGCCCCAA,-0.0979
21,CATATCAA,0.221
22,CAGGTATA,0.0141
23,AAGATAGA,0.0579
24,ACGTATTC,-0.0109
25,AACGCTGG,-0.0107

# Nothing new here: entries from further up.
row,Sequence,PBM E-score
5,TCCAGGAA,-0.0583
6,ATCCAGAG,0.0996

# Following part.

row,Sequence,PBM E-score
1,AGCCGAAT,0.0696
2,GCTTCGCC,-0.25
3,CCTTATCG,-0.0611
4,AGGTACGC,0.0304
5,CTCAGGAG,-0.205
6,ACGGCTGC,-0.202
7,CACCAGTG,-0.0747
8,CCATCGAA,0.0694
9,CAGACTAG,-0.182
10,AGTTTCAC,0.0923
11,CGCTGGAC,-0.0616
12,CAGTTCCC,0.0895
13,ACTTCCGC,0.0384
14,AGAGTGGG,-0.0376
15,ATAATCGA,0.0835
16,CAGTTGGG,-0.00385
17,ACCGTCGC,-0.0276
18,ACGCATAC,0.0429
19,CGCAGTCA,-0.0898
20,ACATGACT,-0.0833
21,ACCTGTGG,-0.0447
22,CTATTGCA,-0.0631
23,CAAATAGA,0.296
24,CTCCTAGA,-0.0808
25,AGAACCCT,0.199

row,Sequence,PBM E-score
1,AGCTGTTA,-0.165
2,GTACAAGA,0.0045
3,ATTGAGCA,0.0434
4,AAGCTGTA,0.118
5,ACCCTCGA,0.125
6,AAAATGAC,0.0768
7,ACATTAAT,0.0647
8,CTTCAATC,-0.0473
9,CGGAGGGC,-0.142
10,ATAACCCA,-0.0462
11,GATTGTCA,-0.0408
12,CCGTTGGA,-0.141
13,AGAGAGAG,-0.166
14,AACCTAGC,-0.0348
15,TGCGTCAA,-0.0115
16,CAATTCCC,0.0815
17,CATTGCAC,0.165
18,TCCGACGA,0.0566
19,ATCCGAAC,0.0668
20,AGAGCCGA,-0.0254
21,AGCTTTCC,-0.116
22,AGGTGAGA,-0.0485
23,GGCTATTA,0.0568
24,CTAGTACA,0.0576
25,CTCTGTGA,0.112

row,Sequence,PBM E-score
1,CGTACCAA,0.101
2,ACGTGATG,0.0423
3,ACCACGAA,-0.135
4,GTGGACGA,0.0664
5,AAACAGCG,0.0913
6,ATGGCAGC,-0.0143
7,CTCACTGC,-0.134
8,AGGAAAAC,0.151
9,TTTAAAAA,-0.137
10,GACTATTA,-0.0192
11,ATAACGAT,-0.019
12,AGGGAATC,0.0536
13,ATGGATAA,0.0508
14,CATGTAGG,0.092
15,AGCCGTCG,0.0289
16,AGGGAAGA,-0.122
17,ACTGCGCG,0.0745
18,AAATACTG,0.0929
19,CACGGAGG,-0.108
20,CAAGTATA,-0.171
21,CATACGGG,-0.132
22,CCCACAAC,-0.0138
23,CGGTGGGA,-0.0593
24,AAAACTCT,-0.145
25,CACTCGCA,-0.0229

row,Sequence,PBM E-score
1,ATAGGCCA,0.00867
2,AGCGTGCA,-0.00392
3,ATTCACTG,-0.163
4,CTAATGGC,0.0859
5,GATACTGC,0.137
6,CACCGGGG,-0.413
7,ATCTGAAA,0.0543
8,AGACGTCC,-0.149
9,CCCTGTAG,0.128
10,GACAAGTA,0.0148
11,ACAAACCG,-0.154
12,CGCTCGAA,0.0436
13,AGGTCCTG,-0.123
14,AGAGCTTC,-0.0634
15,AAACCACA,0.134
16,ACGAAACG,-0.0152
17,TAGATAAA,0.0121
18,GGTGGATA,-0.0533
19,CACTCAAC,0.227
20,GCTGCTTA,-0.213
21,GACTAACC,-0.0733
22,ACATAGTG,0.103
23,CCAATTGG,0.106
24,CCGTTTTA,0.117
25,CAACCCCC,-0.402

# Looked up above.
# Value for AGCGTGCA under PBM E-score: -0.00392
# Value for CTAATGGC under PBM E-score: 0.0859
# Value for AGACGTCC under PBM E-score: -0.149

# Additional entries.

row,Sequence,PBM E-score
1,CGGCCCGA,0.0102
2,CAAGTCCA,0.0256
3,CAACACGA,0.127
4,CGAATAAG,-0.0297
5,AACGCAAG,0.0369
6,GTATCGTA,0.0702
7,TCGACCGA,-0.018
8,GCCTACGA,0.102
9,ACCACGCC,-0.279
10,AAGCAAGA,0.0236
11,ACCATTGA,-0.13
12,CTTATAGA,0.0633
13,GACAATCC,0.143
14,TAAGTCAA,0.0319
15,ACCGGGCG,-0.186
16,ATGGTTTC,-0.0123
17,CAATTGGA,0.0313
18,AGTACTGA,0.0453
19,ATGCTAGC,0.00027
20,ACTATCAG,-0.0384
21,CAGACCGC,0.13
22,AATCAGTC,0.0108
23,CCAAAAAC,0.161
24,AGATCTCG,0.0592
25,CACATTCA,-0.00281

row,Sequence,PBM E-score
1,TCGAGTAA,0.131
2,AGCTGTTG,0.133
3,AGGCGCCT,-0.0863
4,ATGAGAAG,-0.0215
5,ACGCGAGC,0.151
6,GAGGTCCA,-0.0725
7,CAAACTGG,0.0464
8,GCAGTAGC,-0.182
9,AACGAATA,0.00143
10,CACCCTCG,0.0261
11,ACGGGGAT,0.18
12,CTTGGGTC,0.0035
13,AGGCAATA,0.0391
14,TTGGAAAA,-0.0283
15,CGAGGCCG,-0.107
16,AAGTCTGA,-0.184
17,CTAGGGAC,0.00608
18,CACAGAAC,-0.162
19,GTGTCTCA,0.0319
20,CAGCCATA,-0.0469
21,AGTACGAC,0.105
22,AGCCATTC,0.0767

# From the supplement of paper PMC3334620
